Data set [1] is described as follows: Area-specific throughput in an inverting filter centrifuge, industrial scale. How it is done: Improved isolability is measurable on an industrial scale for example via a higher area-specific throughput in an inverting filter centrifuge (example 15).
The isolability of the material produced via route 2 is improved compared to the material produced via route 1. This manifests for example in a higher area-specific throughput in the inverting filter centrifuge. On an industrial scale isolation of the material from route 1 achieved an average area-specific throughput of 1.6 kg/m^2h. The average area-specific throughput of the material from route 2 was 3.0 kg/m^2h and thus nearly double the above (example 15).
Higher area-specific throughput in an inverting filter centrifuge. Industrial scale.

Data set [2] is described as follows: Dischargeability from the inverting filter centrifuge (filtercake thickness without blockage of discharge path). The conditions noted are these: industrial scale. An excerpt:
Improved dischargeability from the isolation apparatus: The process according to route 2 prevents the formation of a felt-like filtercake having high tear strength. Both after isolation in the pressure filter and after isolation in the filter centrifugation the filtercake is soft and moldable. This prevents blockage of the discharge path. For example on an industrial scale a blockage of the discharge path from the inverting filter centrifuge after isolation of the material from Route 1 was avoidable only by reducing the filtercake thickness to 8 to 9 mm. By contrast in the isolation of the material from route 2 an average filtercake height of 25 mm was realized without any blocking of the discharge path being observed.

Where [3] appears, read: listed as material from route 1.
The mark [4] stands for this setting: listed as material from route 2.

Structures are written as SMILES. Like-named read-outs stand apart in the source and are kept apart here.

Turning to `COC(=O)Nc1c(N)nc(-c2nn(Cc3ccccc3F)c3ncc(F)cc23)nc1N` [Route 1, Methyl {4,6-diamino-2-[5-fluoro-1-(2-fluorobenzyl)-1H-pyrazolo[3,4-b]pyridin-3-yl]pyrimidin-5-yl}carbamate], the Average area-specific throughput in data set [1] and in data set [1] (setting [3]) was 1.6 kg/m^2h each time. Also, the “Filtercake thickness without blockage of the discharge path” value in data set [2] (setting [3]) is recorded as 8 to 9 mm.

In the case of `COC(=O)Nc1c(N)nc(-c2nn(Cc3ccccc3F)c3ncc(F)cc23)nc1N` [Route 2, Methyl {4,6-diamino-2-[5-fluoro-1-(2-fluorobenzyl)-1H-pyrazolo[3,4-b]pyridin-3-yl]pyrimidin-5-yl}carbamate], the Average area-specific throughput in data set [1] and in data set [1] (setting [4]) was 3.0 kg/m^2h throughout. The “Filtercake thickness without blockage of the discharge path” value in data set [2] (setting [4]) was 25 mm.

The values above are taken from US12172996B2, “Methyl {4,6-diamino-2-[5-fluoro-1-(2-fluorobenzyl)-1H-pyrazolo[3,4-b]pyridin-3-yl]pyrimidin-5-yl}carbamate active compound product having improved properties, production and formulation thereof” (Adverio Pharma GmbH, priority 2018, dated 2024).
